Data reported in PMC11183095.
These are yes or no findings as the source states them, for the method shown. In cells and extracts the contact can be indirect.

Amino acid sequences for entries named in this document (tags omitted).
UniProt P18669: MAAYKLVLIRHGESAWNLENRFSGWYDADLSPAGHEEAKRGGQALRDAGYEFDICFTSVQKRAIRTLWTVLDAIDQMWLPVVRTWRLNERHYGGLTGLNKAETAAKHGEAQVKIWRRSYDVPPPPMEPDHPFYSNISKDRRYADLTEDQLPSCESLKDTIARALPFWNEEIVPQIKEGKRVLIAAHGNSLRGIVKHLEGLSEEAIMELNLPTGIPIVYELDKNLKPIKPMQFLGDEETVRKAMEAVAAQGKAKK

Target: Phosphoglycerate mutase 1 (PGAM1), endogenous (human (endogenous in A549)) (UniProt P18669)
Test: co-IP; anti-PGAM1 immunoprecipitation from whole-cell lysates of A549 (also H1299, MCF-7, MDA-MB-231, AGS, Jurkat tumour cells; with or without EGF), western blot; IgG as negative control

- binding: no binding
B1: Phosphoenolpyruvate carboxykinase PCK2, endogenous (enzyme, UniProt Q16822 33-640)
chain: LSGDLGQLPTGIRDFVEHSARLCQPEGIHICDGTEAENTATLTLLEQQGLIRKLPKYNNCWLARTDPKDVARVESKTVIVTPSQRDTVPLPPGGARGQLGNWMSPADFQRAVDERFPGCMQGRTMYVLPFSMGPVGSPLSRIGVQLTDSAYVVASMRIMTRLGTPVLQALGDGDFVKCLHSVGQPLTGQGEPVSQWPCNPEKTLIGHVPDQREIISFGSGYGGNSLLGKKCFALRIASRLARDEGWLAEHMLILGITSPAGKKRYVAAAFPSACGKTNLAMMRPALPGWKVECVGDDIAWMRFDSEGRLRAINPENGFFGVAPGTSATTNPNAMATIQSNTIFTNVAETSDGGVYWEGIDQPLPPGVTVTSWLGKPWKPGDKEPCAHPNSRFCAPARQCPIMDPAWEAPEGVPIDAIIFGGRRPKGVPLVYEAFNWRHGVFVGSAMRSESTAAAEHKGKIIMHDPFAMRPFFGYNFGHYLEHWLSMEGRKGAQLPRIFHVNWFRRDEAGHFLWPGFGENARVLDWICRRLEGEDSARETPIGLVPKEGALDLSGLRAIDTTQLFSLPKDFWEQEVRDIRSYLTEQVNQDLPKEVLAELEALERRVHKM
